Measurements published in PubChem BioAssay AID624291 (National Center for Advancing Translational Sciences (NCATS), 2012).
Among all 350,000 compounds or so, about 220 (0.063%) were called active. The inconclusive results got no clear call from the source; some entries with a clear call stand among them for comparison. Calls come from the whole dose curve; as a rule, active = well fitted activation curve with a large enough effect; inconclusive = small, poorly fitted or top-dose-only effect; inactive = no such curve, though single readings can be large or run the other way. Where the call is inconclusive, the potency comes from a doubtful curve fit.

Assay: qHTS for Activators of Integrin-Mediated Alleviation for Muscular Dystrophy; note: nearly all actives have a fitted effect of over 60% in size;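 for activation: 100% = response of the positive control SU9516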
Settings: alpha7betagal myoblasts, beta-gal FDG fluorescence, 48 h; activation: at 38.3 µM (top of the series)
Method in brief: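 Alpha7betagal+/- myoblasts (passage 13) were plated 16-24 hr, then exposed to compounds (1:260 dilution of DMSO stock) for 48 hours at 37C. After MPER lysis, β-galactosidase reporter activity was read as FDG fluorescence (ex 480/em 540) after 30 minutes.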
Potency is the fitted concentration of half-maximal effect.

| SMILES | activation | Potency |
| --- | --- | --- |
| O=C(O)CCCNC(=O)CCCn1nnc2ccccc2c1=O | inactive: 16.6% | – |
| O=C(Cc1cccs1)Nc1ccc(-c2nnc(-c3ccccc3)o2)cc1 | inactive: 3.81% | – |
| COCCn1nnnc1C(c1ccccn1)N1CCN(c2cc(C)ccc2C)CC1 (centres undefined) | – | inconclusive: 5.01 µM [activator, single point] |
| CCOC(=O)c1ccc(NS(=O)(=O)c2cn(C)cn2)cc1 | – | inconclusive: 5.01 µM [activator, single point] |
| COc1ccc(NC(=O)CN(C)C(=O)c2ccc(COc3ccccc3)cc2)cc1 | – | inconclusive: 5.01 µM [activator, single point] |
| C=CCN(c1ccc(F)cc1)S(=O)(=O)c1cc(C(=O)NC2CCC(O)CC2)ccc1Cl (centres undefined) | – | inconclusive: 10 µM [activator, single point] |
| COCCN(Cc1ccccc1)C(=O)c1cccc(S(=O)(=O)N2CCN(Cc3ccccc3)CC2)c1 | inactive: -30.8% | – |
| COc1ccc(C2=NS(=O)(=O)N(C)C(C(=O)Nc3ccc(C(C)=O)cc3)=C2)cc1OC | inactive: -26.2% | – |
| Nc1[nH]c(=O)[nH]c(=O)c1N=Nc1ccc(C(=O)O)cc1 | – | inconclusive: 20 µM [activator, single point] |
| COc1ccc2[nH]c(=O)c(CN(C(=O)C3CCCO3)c3ccc(C)cc3)cc2c1 (centres undefined) | inactive: -12% | – |
| COc1ccc(OC)c(C2C3=C(CCCC3=O)Nc3c2c(=O)n(C)c(=O)n3C)c1 (centres undefined) | – | inconclusive: 12.6 µM [activator, single point] |
| O=C(N[C@@H](Cc1ccccc1)C(=O)OCc1ccccc1)c1nc[nH]c1C(=O)NCc1ccccc1 | inactive: 9.98% | – |
| CCC(C)C(NC(=O)C(CC(C)C)NC(=O)C(CO)NC(=O)C1CCC(=O)N1)C(=O)OC (centres undefined) | – | inconclusive: 0.282 µM [activator, full curve, poor fit] |
| Cc1ccccc1C(=O)NC(CC(C)C)C(=O)Nc1ccc(F)c([N+](=O)[O-])c1 (centres undefined) | – | inconclusive: 28.2 µM [activator, single point] |
| COC(=O)C1(NC(=O)NC23CC4CC(CC(C4)C2)C3)CCCCC1 | – | inconclusive: 28.2 µM [activator, single point] |
| COc1ccccc1NC(C)=[N+](C)CCNS(=O)(=O)c1ccc(Cl)cc1 | – | inconclusive: 5.01 µM [activator, single point] |
| C(=N\Nc1nc2ccccc2[nH]1)/c1ccncc1 | – | inconclusive: 10 µM [activator, partial curve] |
| COc1ccc(-c2c(C)nn(-c3ccccc3)c2N)cc1OC | – | inconclusive: 31.6 µM [activator, single point] |
| Cc1ccccc1OCCCCc1c(C)n[nH]c1C | inactive: -46.3% | – |
| O=C(Nc1ccc(Cl)cn1)c1ccc(-c2cc(Cl)ccc2Cl)o1 | – | inconclusive: 0.501 µM [activator, full curve, poor fit] |
| CCOC(=O)C1CCCN(C(=O)c2cc(S(=O)(=O)N3CCCCCC3)ccc2OC)C1 (centres undefined) | – | inconclusive: 10 µM [activator, single point] |
| CSc1nc(Sc2ccccc2Cl)c2ccccc2n1 | inactive: -31.1% | – |

Entries above containing a COOH group, in the order listed:

| SMILES | activation | Potency |
| --- | --- | --- |
| O=C(O)CCCNC(=O)CCCn1nnc2ccccc2c1=O | inactive: 16.6% | – |
| Nc1[nH]c(=O)[nH]c(=O)c1N=Nc1ccc(C(=O)O)cc1 | – | inconclusive: 20 µM [activator, single point] |

Continuation:

| SMILES | activation | Potency |
| --- | --- | --- |
| CC(=O)Nc1ccc(N(CC(O)Cn2c3ccccc3c3ccccc32)S(=O)(=O)c2ccc(C)cc2)cc1 (centres undefined) | – | inconclusive: 5.01 µM [activator, single point] |
| CCOC(=O)c1ccccc1NC(=O)CSc1nnnn1C1CCCCC1 | inactive: -33% | – |
| c1ccc2c(c1)ncn2CCN1CCCCC1 | inactive: -1.8% | – |
| S=C(N/N=C/c1ccccc1Cl)Nc1cccc(Cl)c1Cl | inactive: -54.1% | – |
| Cc1cccc(N(C(=O)c2snc(C(N)=O)c2N)C(C)C(=O)NCC2CCCO2)c1 (centres undefined) | – | inconclusive: 28.2 µM [activator, single point] |
| N#Cc1c(N)nc2c(c1-c1ccco1)CCCCC2 | – | inconclusive: 2.82 µM [activator, partial curve, poor fit] |
| CCOc1cc(-c2n[nH]c(=S)n2Cc2ccccc2)ccc1OC(F)F | – | inconclusive: 2.24 µM [activator, single point] |
| COCCOC(=O)c1c(C)oc2ccc(OC(=O)c3ccco3)cc12 | – | inconclusive: 3.16 µM [activator, partial curve, poor fit] |
| CCc1cccc(CC)c1NC(=S)Nc1cccc(Cl)c1Cl | – | inconclusive: 31.6 µM [activator, single point] |
| COC(=O)C1CCN(C(=O)COC(=O)Cn2cnnn2)CC1 | – | inconclusive: 12.6 µM [activator, partial curve, poor fit] |
| O=C(NCc1ccc(Cl)cc1)c1ccccc1CCc1ccccc1 | – | inconclusive: 3.16 µM [activator, partial curve, poor fit] |
| CCn1nc(NC(=O)c2ccco2)c2cc3cc(C)ccc3nc21 | inactive: 2.27% | – |
| O=C(c1cc(Cl)ccc1OCc1ccccc1)N1CCOCC1 | – | inconclusive: 5.01 µM [activator, single point] |
| CNC(=O)c1ccc(S(=O)(=O)c2ccc(Cl)cc2)c(NC(C)=O)c1 | – | inconclusive: 2.24 µM [activator, single point] |
| S=C1NCN(CCc2ccccc2)CN1Cc1ccccc1 | – | inconclusive: 5.01 µM [activator, single point] |
| O=C(O)c1cc(N=Nc2c(O)[nH]c3ccc([N+](=O)[O-])cc23)ccc1Cl | – | inconclusive: 2.82 µM [activator, partial curve, poor fit] |
| Cc1ccccc1-c1nn(-c2ccc(F)cc2F)cc1CNCCCN(C)C | inactive: -60.5% | – |
| Cc1ccc(NCc2nnc(SCC(=O)Nc3cccc(O)c3)n2CC2CCCO2)c(C)c1 (centres undefined) | inactive: -14% | – |
| CC1(C)Cc2c(C#N)c(SCCOc3ccccc3)nc(N3CCOCC3)c2CO1 | – | inconclusive: 28.2 µM [activator, single point] |
| COc1ccccc1NC(=S)NCC1CCCCC1 | – | inconclusive: 28.2 µM [activator, single point] |
| COc1cc(NS(=O)(=O)c2ccc(NC(=O)CN3C(=O)c4ccccc4C3=O)cc2)ncn1 | – | inconclusive: 11.2 µM [activator, single point] |
| Cc1cc(N/N=C/c2ccncc2)nc2ccccc12 | – | inconclusive: 28.2 µM [activator, partial curve, poor fit] |
